Test results taken from paper PMC4279394.
No constants are given. Whether binding was seen depends on the method and setting. In cells and extracts the contact can be indirect. Some results given as binding are weak or reduced against the parent protein; the word gives no strength.

By UniProt entry, the sequences of proteins in these tests, tags left out.
UniProt P35222: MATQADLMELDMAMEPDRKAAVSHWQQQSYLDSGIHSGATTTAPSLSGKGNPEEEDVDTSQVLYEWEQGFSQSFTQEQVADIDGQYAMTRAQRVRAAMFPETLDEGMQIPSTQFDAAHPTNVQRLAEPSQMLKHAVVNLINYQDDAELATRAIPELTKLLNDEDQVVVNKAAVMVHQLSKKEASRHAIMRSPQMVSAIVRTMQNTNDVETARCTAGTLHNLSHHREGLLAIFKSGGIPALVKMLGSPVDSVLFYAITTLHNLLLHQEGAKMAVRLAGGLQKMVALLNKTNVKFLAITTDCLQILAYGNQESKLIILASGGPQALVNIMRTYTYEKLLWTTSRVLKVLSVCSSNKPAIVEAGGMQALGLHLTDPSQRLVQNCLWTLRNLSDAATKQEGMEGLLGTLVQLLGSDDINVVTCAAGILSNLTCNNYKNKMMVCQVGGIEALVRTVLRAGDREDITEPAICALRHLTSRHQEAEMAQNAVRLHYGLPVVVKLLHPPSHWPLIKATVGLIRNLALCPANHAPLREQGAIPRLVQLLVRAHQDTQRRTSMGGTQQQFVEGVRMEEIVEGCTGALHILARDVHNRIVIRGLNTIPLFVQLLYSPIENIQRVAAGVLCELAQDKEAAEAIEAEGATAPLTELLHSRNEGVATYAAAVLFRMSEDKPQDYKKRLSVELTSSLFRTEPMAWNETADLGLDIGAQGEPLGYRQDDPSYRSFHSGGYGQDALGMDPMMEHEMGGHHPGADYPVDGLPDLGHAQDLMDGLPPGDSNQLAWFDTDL
UniProt P56693: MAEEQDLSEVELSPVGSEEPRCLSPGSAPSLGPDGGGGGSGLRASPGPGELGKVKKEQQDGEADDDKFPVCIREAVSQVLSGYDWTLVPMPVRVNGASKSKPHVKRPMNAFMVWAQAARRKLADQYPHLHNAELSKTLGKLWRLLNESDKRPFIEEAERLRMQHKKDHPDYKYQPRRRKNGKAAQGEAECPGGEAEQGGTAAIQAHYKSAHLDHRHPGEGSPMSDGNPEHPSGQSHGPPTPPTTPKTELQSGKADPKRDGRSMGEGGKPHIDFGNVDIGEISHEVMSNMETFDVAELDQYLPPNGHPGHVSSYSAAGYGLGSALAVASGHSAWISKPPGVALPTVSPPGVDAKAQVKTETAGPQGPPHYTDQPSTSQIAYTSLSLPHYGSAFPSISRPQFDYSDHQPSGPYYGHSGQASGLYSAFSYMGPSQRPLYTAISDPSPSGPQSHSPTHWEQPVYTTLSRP

Key:
[1] = target: endogenous β-catenin (human (endogenous in HCT116 and 293T)) (UniProt P35222); assay: co-IP; whole-cell extracts of HCT116 cells transfected with V5-tagged SOX10; immunoprecipitated with anti-V5 or anti-β-catenin (IgG as negative control), western blot
[2] = target: GST-tagged β-catenin (UniProt P35222); assay: pull-down; GST or GST-β-catenin (glutathione-sepharose beads) incubated with SOX10 protein extracted from 293T cells transfected with pcSOX10, 1 hour at 4°C; SDS-PAGE and western blot; only the target purified
[3] = target: V5-tagged SOX10 (wild type) (human) (UniProt P56693); assay: co-IP; whole-cell extracts of HCT116 cells transfected with V5-tagged SOX10; immunoprecipitated with anti-V5 or anti-β-catenin (IgG as negative control), western blot
[4] = target: V5-tagged SOX10 (wild type) (human) (UniProt P56693); assay: co-IP; whole-cell extracts of cells expressing V5-SOX10 or its mutants (3G, DB, 482ins6); endogenous β-catenin; cell line (HCT116 or 293T) and precipitating antibody not stated for this panel (Figure 6B)

V5-tagged SOX10 (wild type) (from UniProt P56693 1-466)
binding [1]: binds
binding [2]: binds

endogenous β-catenin (from UniProt P35222 1-781)
binding [3]: binds
binding [4]: binds
